Data taken from PubChem BioAssay AID1347080 (ICCB-Longwood Screening Facility, Harvard Medical School, 2019).
The list shows a part of the results.

Assay: sensitizers of A549 cells to miR-34 induction, primary screen, imaging, A549 dox-inducible miR-34, nuclei and caspase counts (AID 1347080); note: test concentration not given here
Details: A549 miR-34 inducible, Hoechst nuclei count, 48 h; for fold change: measured here: relative caspase fold change +Dox/-Dox
[1] = measured here: total cells with miR-34 induction, stronger effect = lower value
[2] = measured here: total cells without miR-34 induction

Row | SMILES | fold change | cell count [1] | cell count [2]
1 | CC1=C2[N-][C@@H](C(CC(N)=O)[C@@]2(C)CCC(=O)NCC(C)OP(=O)([O-])OC2C(CO)OC(n3cnc4cc(C)c(C)cc43)C2O)[C@]2(C)N=C(C(C)=C3N=C(C=C4N=C1C(CCC(N)=O)C4(C)C)C(CCC(N)=O)[C@]3(C)CC(N)=O)C(CCC(N)=O)[C@]2(C)CC(N)=O.[C-]#N.[Co+3] (stereo partly drawn) | 0.732 | 8380 | 9530
2 | O=P(O)(O)F | 0.713 | 8580 | 9260
3 | O=C(O[C@H]1CN2CCC1CC2)C1NCc2ccccc2[C@@H]1c1ccccc1 (stereo partly drawn) | 0.59 | 7560 | 8130
4 | CN(C(=O)Cc1ccc(Cl)c(Cl)c1)[C@@H]1CCCC[C@@H]1N1CCCC1 | 0.736 | 10200 | 9670
5 | O=C(OC1CN2CCC1CC2)c1ccccc1 (stereo not drawn) | 1.22 | 8910 | 9150
6 | C/C1=C2N=C(/C=C3N=C(/C(C)=C4\[N-][C@@](C)([C@@H]5N=C1[C@](C)(CCC(=O)NC[C@@H](C)OP(=O)([O-])O[C@H]1[C@@H](O)[C@@H](n6cnc7cc(C)c(C)cc76)O[C@@H]1CO)[C@H]5CC(N)=O)[C@@](C)(CC(N)=O)[C@@H]4CCC(N)=O)[C@@](C)(CC(N)=O)[C@@H]\3CCC(N)=O)C(C)(C)[C@@H]/2CCC(N)=O.[C-]#N.[Co+3] | 1.4 | 9310 | 11200
7 | CN(C(=O)Cc1ccc(Cl)c(Cl)c1)[C@@H]1CCCC[C@H]1N1CCCC1 | 0.843 | 8650 | 8810
8 | CN(C(=O)Cc1ccc(Cl)c(Cl)c1)[C@@H]1CC[C@]2(CCCO2)C[C@H]1N1CCCC1 | 1.09 | 10000 | 9900
9 | NC(=O)Nc1ccc([As](=O)(O)O)cc1 | 1.68 | 8720 | 10400
10 | CN(C(=O)Cc1ccccc1)[C@@H]1CC[C@]2(CCCO2)C[C@H]1N1CCCC1 | 1.08 | 9340 | 9810
11 | CN(C)CCS | 0.816 | 8690 | 9510
